Results from article PMC4937315.

Amino acid sequences for entries named in this document (tags omitted). A change or cut given only in a name is not applied to a line headed by its entry.
UniProt Q17740: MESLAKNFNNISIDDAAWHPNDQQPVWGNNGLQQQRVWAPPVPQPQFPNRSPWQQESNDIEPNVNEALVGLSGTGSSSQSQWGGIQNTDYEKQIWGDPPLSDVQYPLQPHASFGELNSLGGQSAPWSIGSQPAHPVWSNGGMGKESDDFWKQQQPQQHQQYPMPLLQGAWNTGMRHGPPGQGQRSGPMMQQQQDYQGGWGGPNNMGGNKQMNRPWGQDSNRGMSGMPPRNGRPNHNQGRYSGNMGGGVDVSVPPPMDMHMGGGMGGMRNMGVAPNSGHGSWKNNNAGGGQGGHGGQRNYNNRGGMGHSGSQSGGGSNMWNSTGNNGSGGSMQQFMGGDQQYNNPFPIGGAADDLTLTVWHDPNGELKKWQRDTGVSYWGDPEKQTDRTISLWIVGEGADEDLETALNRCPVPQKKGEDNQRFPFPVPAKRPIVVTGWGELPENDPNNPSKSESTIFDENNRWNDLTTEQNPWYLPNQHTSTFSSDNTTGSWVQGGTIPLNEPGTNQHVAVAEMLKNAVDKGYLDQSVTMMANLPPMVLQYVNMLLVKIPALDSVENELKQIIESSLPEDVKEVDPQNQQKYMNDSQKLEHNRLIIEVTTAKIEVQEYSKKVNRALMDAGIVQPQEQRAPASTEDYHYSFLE

Assays:
[1] = target: T1, PAB-1 (C. elegans cytoplasmic poly(A)-binding protein 1) (C. elegans (endogenous in embryos)) (UniProt Q9U302); assay: pull-down; proteins of WT (N2) embryonic S10 lysate co-purified with PAB-1/PAB-2, which were pulled down through their ligand GST-PAIP2 on Glutathione-Sepharose beads; 1 h at 4°C; 0.1 ng/µl RNase A; western blot; RNase A or MNase treatment did not impinge on co-purification
T1 sequence: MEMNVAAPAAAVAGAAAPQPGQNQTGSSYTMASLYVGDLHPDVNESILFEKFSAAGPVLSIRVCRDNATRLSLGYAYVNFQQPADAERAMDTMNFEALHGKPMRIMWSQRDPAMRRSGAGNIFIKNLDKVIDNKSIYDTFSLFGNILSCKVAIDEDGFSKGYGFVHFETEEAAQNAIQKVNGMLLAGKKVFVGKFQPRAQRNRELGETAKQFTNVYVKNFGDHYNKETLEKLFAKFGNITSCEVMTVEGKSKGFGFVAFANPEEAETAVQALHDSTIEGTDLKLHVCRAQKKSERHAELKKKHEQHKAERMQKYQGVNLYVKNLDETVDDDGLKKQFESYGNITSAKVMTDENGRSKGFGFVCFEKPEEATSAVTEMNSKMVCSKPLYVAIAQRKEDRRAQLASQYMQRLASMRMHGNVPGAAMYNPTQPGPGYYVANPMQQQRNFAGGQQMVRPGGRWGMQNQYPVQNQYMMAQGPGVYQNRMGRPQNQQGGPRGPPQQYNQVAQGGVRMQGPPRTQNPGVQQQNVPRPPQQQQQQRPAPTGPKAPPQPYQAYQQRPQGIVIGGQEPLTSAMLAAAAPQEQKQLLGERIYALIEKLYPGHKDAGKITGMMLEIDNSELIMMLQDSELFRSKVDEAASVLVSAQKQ

[2] = target: T1, PAB-1 (C. elegans cytoplasmic poly(A)-binding protein 1) (C. elegans (endogenous in embryos)); assay: pull-down; proteins of pab-2(ok1851) embryonic S10 lysate (no PAB-2) co-purified with PAB-1, which was pulled down through its ligand GST-PAIP2 on Glutathione-Sepharose beads; 0.1 ng/µl RNase A; western blot

IFG-1 (eIF4G homolog) (C. elegans (endogenous in embryos))
binding [1]: binds

AIN-1 (C. elegans homolog of GW182) (from UniProt Q17740)
binding [2]: binds

Results are given in words; binding and its absence hold for the method and conditions named. Binding seen in cells or lysates may run through a third protein. Binding can be weak; no strength is given.
